The results in this text go back to PMC8575462, “PP2A/B55α substrate recruitment as defined by the retinoblastoma-related protein p107” (eLife, 2021).

For one experiment, the target named is T1, Myc-B55α H179A (UniProt P63151).
T1 sequence: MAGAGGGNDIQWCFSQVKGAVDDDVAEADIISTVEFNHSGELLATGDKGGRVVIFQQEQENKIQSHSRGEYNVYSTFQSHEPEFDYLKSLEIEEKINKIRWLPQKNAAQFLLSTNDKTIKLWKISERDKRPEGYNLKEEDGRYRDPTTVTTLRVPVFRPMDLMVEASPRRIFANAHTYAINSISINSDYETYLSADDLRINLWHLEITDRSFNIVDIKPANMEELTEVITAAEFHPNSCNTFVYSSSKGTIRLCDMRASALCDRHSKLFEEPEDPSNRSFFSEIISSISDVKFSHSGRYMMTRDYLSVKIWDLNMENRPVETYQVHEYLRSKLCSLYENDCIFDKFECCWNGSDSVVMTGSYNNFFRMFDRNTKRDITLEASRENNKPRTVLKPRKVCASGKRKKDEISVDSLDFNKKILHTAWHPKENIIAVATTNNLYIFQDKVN
Briefly: co-IP; 293T cells co-transfected with a FLAG-tagged substrate and wildtype or mutant Myc-B55α; IP with anti-Myc agarose; blots with anti-Flag, anti-B55α, anti-PP2A/C.

A further experiment has as its target T2, Myc-B55α V228A (UniProt P63151).
T2 sequence: T1 sequence with A179H, V228A
Described as above.

For another experiment, the target named is T3, Myc-B55α wild type (UniProt P63151).
T3 sequence: T1 sequence with A179H
Described as above.

The target of another experiment is T4, GST-p107 spacer (UniProt P28749).
T4 sequence: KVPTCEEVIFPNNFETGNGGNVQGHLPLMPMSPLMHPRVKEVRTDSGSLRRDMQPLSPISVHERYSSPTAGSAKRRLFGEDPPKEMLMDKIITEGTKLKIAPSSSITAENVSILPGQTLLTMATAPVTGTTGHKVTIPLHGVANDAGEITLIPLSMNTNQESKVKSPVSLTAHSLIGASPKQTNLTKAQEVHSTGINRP
Briefly: pull-down; GST-p107 spacer constructs on glutathione beads incubated with U-2 OS whole-cell lysate (methods: 293T lysates), 3 hr or overnight at 4°C, washed 5x with DIP lysis buffer; western blot; only the target purified. (In general: A western blot detects proteins with antibodies after separation by electrophoresis.)

Numbering of substitutions follows the chain as printed. These are yes or no findings as the source states them, for the method shown. In cells and extracts the contact can be indirect. Some entries that bind do so weakly or less than the wild type. Sequences can lack the tags named with a protein.

B1: Flag-p107 (protein, UniProt P28749 1-1068)
chain: MFEDKPHAEGAAVVAAAGEALQALCQELNLDEGSAAEALDDFTAIRGNYSLEGEVTHWLACSLYVACRKSIIPTVGKGIMEGNCVSLTRILRSAKLSLIQFFSKMKKWMDMSNLPQEFRERIERLERNFEVSTVIFKKYEPIFLDIFQNPYEEPPKLPRSRKQRRIPCSVKDLFNFCWTLFVYTKGNFRMIGDDLVNSYHLLLCCLDLIFANAIMCPNRQDLLNPSFKGLPSDFHTADFTASEEPPCIIAVLCELHDGLLVEAKGIKEHYFKPYISKLFDRKILKGECLLDLSSFTDNSKAVNKEYEEYVLTVGDFDERIFLGADAEEEIGTPRKFTRDTPLGKLTAQANVEYNLQQHFEKKRSFAPSTPLTGRRYLREKEAVITPVASATQSVSRLQSIVAGLKNAPSDQLINIFESCVRNPVENIMKILKGIGETFCQHYTQSTDEQPGSHIDFAVNRLKLAEILYYKILETVMVQETRRLHGMDMSVLLEQDIFHRSLMACCLEIVLFAYSSPRTFPWIIEVLNLQPFYFYKVIEVVIRSEEGLSRDMVKHLNSIEEQILESLAWSHDSALWEALQVSANKVPTCEEVIFPNNFETGNGGNVQGHLPLMPMSPLMHPRVKEVRTDSGSLRRDMQPLSPISVHERYSSPTAGSAKRRLFGEDPPKEMLMDKIITEGTKLKIAPSSSITAENVSILPGQTLLTMATAPVTGTTGHKVTIPLHGVANDAGEITLIPLSMNTNQESKVKSPVSLTAHSLIGASPKQTNLTKAQEVHSTGINRPKRTGSLALFYRKVYHLASVRLRDLCLKLDVSNELRRKIWTCFEFTLVHCPDLMKDRHLDQLLLCAFYIMAKVTKEERTFQEIMKSYRNQPQANSHVYRSVLLKSIPREVVAYNKNINDDFEMIDCDLEDATKTPDCSSGPVKEERGDLIKFYNTIYVGRVKSFALKYDLANQDHMMDAPPLSPFPHIKQQPGSPRRISQQHSIYISPHKNGSGLTPRSALLYKFNGSPSKSLKDINNMIRQGEQRTKKRVIAIDSDAESPAKRVCQENDDVLLKRLQDVVSERANH
Turning to B1, the binding result with Myc-B55α H179A, with Myc-B55α V228A and in the experiment with Myc-B55α wild type was “binds” each time.

B2: B55α (PP2A regulatory subunit B55α), endogenous in U-2 OS cells (protein, UniProt P63151 1-447)
chain: T1 sequence with A179H
With B2, the binding result with GST-p107 spacer was “binds”.

B3: Flag-KSR1 (protein, UniProt Q8IVT5 1-923)
chain: MDRAALRAAAMGEKKEGGGGGDAAAAEGGAGAAASRALQQCGQLQKLIDISIGSLRGLRTKCAVSNDLTQQEIRTLEAKLVRYICKQRQCKLSVAPGERTPELNSYPRFSDWLYTFNVRPEVVQEIPRDLTLDALLEMNEAKVKETLRRCGASGDECGRLQYALTCLRKVTGLGGEHKEDSSWSSLDARRESGSGPSTDTLSAASLPWPPGSSQLGRAGNSAQGPRSISVSALPASDSPTPSFSEGLSDTCIPLHASGRLTPRALHSFITPPTTPQLRRHTKLKPPRTPPPPSRKVFQLLPSFPTLTRSKSHESQLGNRIDDVSSMRFDLSHGSPQMVRRDIGLSVTHRFSTKSWLSQVCHVCQKSMIFGVKCKHCRLKCHNKCTKEAPACRISFLPLTRLRRTESVPSDINNPVDRAAEPHFGTLPKALTKKEHPPAMNHLDSSSNPSSTTSSTPSSPAPFPTSSNPSSATTPPNPSPGQRDSRFNFPAAYFIHHRQQFIFPVPSAGHCWKCLLIAESLKENAFNISAFAHAAPLPEAADGTRLDDQPKADVLEAHEAEAEEPEAGKSEAEDDEDEVDDLPSSRRPWRGPISRKASQTSVYLQEWDIPFEQVELGEPIGQGRWGRVHRGRWHGEVAIRLLEMDGHNQDHLKLFKKEVMNYRQTRHENVVLFMGACMNPPHLAIITSFCKGRTLHSFVRDPKTSLDINKTRQIAQEIIKGMGYLHAKGIVHKDLKSKNVFYDNGKVVITDFGLFGISGVVREGRRENQLKLSHDWLCYLAPEIVREMTPGKDEDQLPFSKAADVYAFGTVWYELQARDWPLKNQAAEASIWQIGSGEGMKRVLTSVSLGKEVSEILSACWAFDLQERPSFSLLMDMLEKLPKLNRRLSHPGHFWKSADINSSKVVPRFERFGLGVLESSNPKM
Take B3: the binding result in the experiment with Myc-B55α H179A, in the experiment with Myc-B55α V228A and in the experiment with Myc-B55α wild type was “binds” throughout.

B4: Flag-pRB (protein, UniProt P06400 1-928)
chain: MPPKTPRKTAATAAAAAAEPPAPPPPPPPEEDPEQDSGPEDLPLVRLEFEETEEPDFTALCQKLKIPDHVRERAWLTWEKVSSVDGVLGGYIQKKKELWGICIFIAAVDLDEMSFTFTELQKNIEISVHKFFNLLKEIDTSTKVDNAMSRLLKKYDVLFALFSKLERTCELIYLTQPSSSISTEINSALVLKVSWITFLLAKGEVLQMEDDLVISFQLMLCVLDYFIKLSPPMLLKEPYKTAVIPINGSPRTPRRGQNRSARIAKQLENDTRIIEVLCKEHECNIDEVKNVYFKNFIPFMNSLGLVTSNGLPEVENLSKRYEEIYLKNKDLDARLFLDHDKTLQTDSIDSFETQRTPRKSNLDEEVNVIPPHTPVRTVMNTIQQLMMILNSASDQPSENLISYFNNCTVNPKESILKRVKDIGYIFKEKFAKAVGQGCVEIGSQRYKLGVRLYYRVMESMLKSEEERLSIQNFSKLLNDNIFHMSLLACALEVVMATYSRSTSQNLDSGTDLSFPWILNVLNLKAFDFYKVIESFIKAEGNLTREMIKHLERCEHRIMESLAWLSDSPLFDLIKQSKDREGPTDHLESACPLNLPLQNNHTAADMYLSPVRSPKKKGSTTRVNSTANAETQATSAFQTQKPLKSTSLSLFYKKVYRLAYLRLNTLCERLLSEHPELEHIIWTLFQHTLQNEYELMRDRHLDQIMMCSMYGICKVKNIDLKFKIIVTAYKDLPHAVQETFKRVLIKEEEYDSIIVFYNSVFMQRLKTNILQYASTRPPTLSPIPHIPRSPYKFPSSPLRIPGGNIYISPLKSPYKISEGLPTPTKMTPRSRILVSIGESFGTSEKFQKINQMVCNSDRVLKRSAEGSNPPKPLKKLRFDIEGSDEADGSKHLPGESKFQQKLAEMTSTRTRMQKQKMNDSMDTSNKEEK
For B4, the binding entry in the experiment with Myc-B55α H179A, in the experiment with Myc-B55α V228A and with Myc-B55α wild type was “binds” throughout.
